No constants are given. Whether binding was seen depends on the method and setting. Binding seen in cells or lysates may run through a third protein. Some binding calls cover weakened binding; strength is not graded here. Where a sequence is shown, tags or fusion partners need not be part of it. Values belong to the binder of their own block, whether it stands above or below them.
Key:
Assay in all cases: split reporter; split-YFP BiFC (YFPn aa 1-174, YFPc aa 175-239) in transiently co-transfected HEK-293 cells; confocal imaging with ER-Tracker or MitoTracker
[1] = biological target: T1, mitoNEET (mNT), full length, fused to a split-YFP fragment (human) (UniProt Q9NZ45)
T1 sequence: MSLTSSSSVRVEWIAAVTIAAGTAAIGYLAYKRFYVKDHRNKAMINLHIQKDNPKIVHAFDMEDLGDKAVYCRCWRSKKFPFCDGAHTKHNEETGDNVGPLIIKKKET

[2] = biological target: T2, mitoNEET (mNT), full length, fused to a split-YFP fragment (human), Q9NZ45; conditions: remark: other sources report otherwise
T2 chain: T1 sequence

[3] = biological target: T3, nutrient-deprivation autophagy factor-1 (NAF-1), full length, fused to a split-YFP fragment (human), Q8N5K1; conditions: remark: other sources report otherwise
T3 chain: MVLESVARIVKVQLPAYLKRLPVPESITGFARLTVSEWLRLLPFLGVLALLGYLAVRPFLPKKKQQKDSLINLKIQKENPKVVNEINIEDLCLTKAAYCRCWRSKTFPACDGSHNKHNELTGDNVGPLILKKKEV

binding [1]: no binding
B1: soluble NAF-1 lacking the membrane-anchoring domain, fused to YFPc (domain or fragment, UniProt Q8N5K1 56-135)
chain: VRPFLPKKKQQKDSLINLKIQKENPKVVNEINIEDLCLTKAAYCRCWRSKTFPACDGSHNKHNELTGDNVGPLILKKKEV

binding [2]: binds
B2: mitoNEET (mNT), full length, fused to a split-YFP fragment, Q9NZ45 1-108 (protein)
chain: T1 sequence

binding [3]: binds
B3: nutrient-deprivation autophagy factor-1 (NAF-1), full length, fused to a split-YFP fragment, Q8N5K1 1-135 (protein)
chain: T3 chain

binding [1]: binds
B4: nutrient-deprivation autophagy factor-1 (NAF-1), full length, fused to a split-YFP fragment (protein, UniProt Q8N5K1 1-135)
chain: T3 chain

— publication PMC5398536
